Measured values from US20220031684A1, “PROPHYLACTIC EFFICACY OF SEROTONIN 4 RECEPTOR AGONISTS AGAINST STRESS” (THE TRUSTEES OF COLUMBIA UNIVERSITY IN THE CITY OF NEW YORK, priority 2019, published 2022).

Columns and labels:
Format in all cases: in vivo
BALB/cJRj mice [1] = experiment: EPM with optogenetic inhibition of mPFC terminals in the DRN (CaMKII-ArchT); details: CaMKII-ArchT-mPFC injected mice; systemic RS67333 1.5 mg/kg or diazepam 1.5 mg/kg
Protocol: The EPM is a widely used behavioral assay for rodents and it has been validated to assess the anti-anxiety effects of pharmacological agents (A-S11). This test was performed as described by (A-S1). The maze is a plus-cross-shaped apparatus, with two open arms and two arms closed by walls linked by a central platform 50 cm above the floor. Mice were individually put in the center of the maze facing an open arm and were allowed to explore the maze during 5 min for the behavioral consequences of an acute systemic administration or mPFC infusion and during 6 min for the optogenetic experiments. The time spent in and the numbers of entries into the open arms were used as an anxiety index. All parameters were measured using a videotracker (EPM3C, Bioseb, Vitrolles, France).
To target opsin expression selectively to cortical glutamatergic terminals in the DRN, AAV5-CaMKIIα-ChR2-enhanced yellow fluorescent protein (eYFP), AAV5-CaMKII-ArchT-green fluorescent protein (GFP) or AAV5-CaMKII-eYFP, obtained from Karl Deisseroth and Ed Boyden (UNC Vector Core, NC, USA) were bilaterally injected into the mPFC (in mm from bregma, A=+2.10, L=±0.50, V=−2.60). Mice injected with AAV5-CamKII-eYFP were used as control.
BALB/cJRj mice were surgically implanted with fiber optics targeted to the DRN (in mm from bregma, A=−4.50, L=+1.20, V=−4.0, angle 15°). […]

BALB/cJRj mice [2] = experiment: Novelty suppressed feeding (NSF), acute anxiolytic-like effect
Protocol: RS67333 (1.5 mg/kg, i.p.), diazepam (1.5 mg/kg, i.p.), fluoxetine (18 mg/kg, i.p.) were injected 45 min before testing in the Elevated Plus Maze (EPM), the Novelty Suppressed Feeding (NSF) or the Open Field (OF) in three independent cohorts of male BALB/cJRj mice.
To ensure the selectivity of the anxiolytic-like effects of RS67333, in a new cohort of male BALB/cJRj mice, GR125487 (1.0 mg/kg, i.p.) dissolved in 0.9% NaCl solution, was injected 15 minutes before RS67333 administration (1.5 mg/kg, i.p.). EPM or NSF occurred 45 min after RS67333 administration (A-S1). Behavioral consequences of the co-administration of GR125487+RS67333 were compared to RS67333 alone, diazepam (1.5 mg/kg, i.p.) fluoxetine (18 mg/kg, i.p.) and vehicle groups (0.9% saline solution, i.p.).
For mPFC drug infusion, two bilateral cannulae (75 μm-diameter silica capillary tubing inserted in 27G stainless steel catheter) were implanted in the mPFC [stereotaxic coordinates in mm from bregma: A=+2.10, L=±0.50, V=−2.60, A, anterior; L, lateral; and V, ventral, according to (A-S10)] under anesthesia (chloral hydrate, 400 mg/kg, i.p.). […] Diazepam (1.5 mg/kg) was used as a positive control.
The NSF is a conflict test that elicits competing motivations: the drive to eat and the fear of venturing into the center of a brightly lit arena. The latency to begin eating is used as an index of anxiety/depression-like behavior, because classical anxiolytic drugs as well as chronic antidepressants decrease this measure. The NSF test was carried out during a 10 min period as previously described (A-S12). Briefly, the testing apparatus consisted of a plastic box (50×50×20 cm), the floor of which was covered with approximately 2 cm of wooden bedding. Twenty-four hours prior to behavioral testing, all food was removed from the home cage. At the time of testing, a single pellet of food (regular chow) was placed on a white paper platform positioned in the center of the box. Each animal was placed in a corner of the box, and a stopwatch was immediately started. The latency to eat (defined as the mouse sitting on its haunches and biting the pellet with the use of forepaws) was timed. Immediately afterwards, the animal was transferred to its home cage, and the amount of food consumed by the mouse in the subsequent 5 min was measured, serving as a control for change in appetite as a possible confounding factor.

129S6/SvEv mice = experiment: Open field (OF) after CFC
Protocol: This chronic CORT elevation dysregulates the hypothalamic-pituitary-adrenal axis (HPA) in a manner similar to that observed in clinical depression. The dose and duration of CORT treatment was selected based on previous studies. CORT (35 μg/ml, equivalent to about 5 mg/kg/day) dissolved in 0.45% hydroxypropyl-o-cyclodextrin (0-CD) or vehicle (VEH) (0.45% j-CD) was available ad libitum in the drinking water in opaque bottles to protect it from light. VEH- and CORT-treated water was changed every 3 days to prevent possible degradation. Contextual Fear Conditioning (CFC): A 3-shock CFC procedure was administered as previously published. Briefly, mice were placed into context A and administered 3 2-s shocks (0.75 mA) at 180 s, 240 s or 300 s following placement into context A. Mice were removed from the context 15 s following the termination of shock (at 317 s). For context retrieval, mice were placed back into context A for 300 s. Electrophysiology: Electrophysiology was conducted as previously described. Statistical Analysis: Results from data analyses are expressed as means±SEM. Alpha was set to 0.05 for all analyses. Data were analyzed using GraphPad Prism v7.0 or v8.0. For all experiments, unless otherwise noted, one- or two-way ANOVAs with repeated-measures were applied to the data as appropriate. […] Videos were scored using ANY-maze behavior tracking software (Stoelting, Wood Dale, Ill.). […]

[3] = i.p. 45 min before testing, RS67333 1.5, diazepam 1.5 mg/kg

SMILES | locomotor activity (EPM), OFF epoch (BALB/cJRj mice [1]) | home-cage food consumption (NSF) (BALB/cJRj mice [2]; [3]) | home-cage food consumption (NSF) (BALB/cJRj mice [2]; intra-mPFC infusion of RS67333 45 min before testing) | consumption of food in a familiar environment (NSF) (BALB/cJRj mice [2]; single dose 1.5 mg/kg, 72 hours after the injection) | distance travelled in the OF (129S6/SvEv mice; female 129S6/SvEv, 1.5 or 10 mg/kg) | distance travelled in the OF vs saline (129S6/SvEv mice; male 129S6/SvEv, 10 mg/kg) | food consumption (NSF) (BALB/cJRj mice [2]; GR125487 1 mg/kg i.p. 15 min before RS67333 1.5 mg/kg i.p.)
CN1C(=O)CN=C(c2ccccc2)c2cc(Cl)ccc21 [diazepam, Diazepam hydrochloride] | without affecting locomotor activity | without affecting the home-cage food consumption | – | – | – | – | –
CCCCN1CCC(CCC(=O)c2cc(Cl)c(N)cc2OC)CC1.Cl [RS-67,333, 1-(4-amino-5-chloro-2-methoxyphenyl)-3-[1(n-butyl)-4-piperidinyl]-1-propanone HCl] | without affecting locomotor activity | without affecting the home-cage food consumption | without affecting the home-cage food consumption | without affecting the consumption of food | did not alter | comparable distance | –
COc1[nH]c2ccc(F)cc2c1C(=O)OCC1CCN(CCNS(C)(=O)=O)CC1.NS(=O)(=O)O [GR125487, 5-Fluoro-2-methoxy-[1-[2-[(methylsulfonyl)amino]ethyl]-4-piperidinyl]-1H-indole-3-methylcarboxylate sulfamate] | – | – | – | – | – | – | without affecting food consumption

Structures can show the parent of a compound that is named as a salt.
